Values of other authors as cited in patent EP0261362A2, “Ubidecarenone as a keloid remedy” (Eisai Co., Ltd., priority 1986, dated 1988).

Conditions: cited from earlier work

## COC1=C(OC)C(=O)C(C/C=C(\C)CC/C=C(\C)CC/C=C(\C)CC/C=C(\C)CC/C=C(\C)CC/C=C(\C)CC/C=C(\C)CC/C=C(\C)CC/C=C(\C)CCC=C(C)C)=C(C)C1=O [ubidecarenone]
methanol
  solubility in methanol: hardly soluble
water
  solubility in water: hardly soluble
